These are yes or no findings as the source states them, for the method shown. In cells and extracts the contact can be indirect. A result given as binding can be weak or reduced; the word gives no strength. Tags and fused reporters may be left off the sequences shown.
Biological target: T1, PDHA1-Flag (pyruvate dehydrogenase E1 alpha 1 subunit) (UniProt P08559)
T1 sequence: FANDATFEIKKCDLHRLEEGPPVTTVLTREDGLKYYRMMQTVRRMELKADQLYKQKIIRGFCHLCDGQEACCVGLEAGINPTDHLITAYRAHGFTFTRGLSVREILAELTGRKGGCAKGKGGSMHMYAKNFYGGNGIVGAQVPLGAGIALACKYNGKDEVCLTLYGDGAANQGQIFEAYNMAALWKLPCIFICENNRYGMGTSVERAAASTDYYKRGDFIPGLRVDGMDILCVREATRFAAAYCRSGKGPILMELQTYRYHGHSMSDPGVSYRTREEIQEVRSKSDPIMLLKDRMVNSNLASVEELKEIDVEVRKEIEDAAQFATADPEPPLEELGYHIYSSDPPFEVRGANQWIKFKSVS
Test: co-IP; Flag-tagged PDHA1 co-expressed with HA-tagged SIRT3, SIRT4 or SIRT5 in HeLa cells; lysis in NP-40 buffer (0.1-0.5% NP-40, 150 mM NaCl, 50 mM Tris-HCl pH 7.5); Flag-tagged proteins immunoprecipitated, washed three times in NP-40 buffer; western blot

- binding: binds
Substance: HA-tagged SIRT3 (enzyme)
